Experimental data taken from PubChem BioAssay AID186 (DTP/NCI, 2004).
Shown are survivors of the treated group in tumour-free mice. Counts of survivors are from the toxicity check (mostly the fifth day) where no day follows; animals may have died later. Schedule codes are those of the source, taken here to give the interval after Q, in days (D) or hours (H), and the number of doses after X. Some doses were run more than once; the values are given in rising order. Some schedules carry Z or #; the key to these is not given.

Test system: B6D2F1 mice, nontumored toxicity test, survival
Experiment: NCI In Vivo Anticancer Drug Screen. Data for tumor model Nontumored Animals (Toxicity Test) in B6D2F1 (BDF1) mice

SMILES: Nc1n[nH]c(N)n1
- survivor count (dose: 100.0 mg/kg/injection, schedule: Q## X004 (ip), vehicle: water): 8 of 8
- survivor count (dose: 200.0 mg/kg/injection, schedule: Q## X004 (ip), vehicle: water): 8 of 8
- survivor count (dose: 400.0 mg/kg/injection, schedule: Q## X004 (ip), vehicle: water): 8 of 8
- survivor count (dose: 800.0 mg/kg/injection, schedule: Q## X004 (ip), vehicle: water): 8 of 8
- survivor count (dose: 1600.0 mg/kg/injection, schedule: Q## X004 (ip), vehicle: water): 8 of 8
- survivor count (dose: 3200.0 mg/kg/injection, schedule: Q## X004 (ip), vehicle: water): 7 of 8

SMILES: Cc1c(N)nc([C@H](CC(N)=O)NC[C@H](N)C(N)=O)nc1C(=O)N[C@H](C(=O)N[C@H](C)[C@@H](O)[C@H](C)C(=O)N[C@H](C(=O)NCCc1nc(-c2nc(C(=O)NCCC[S+](C)C)cs2)cs1)[C@@H](C)O)C(OC1OC(CO)C(O)C(O)C1OC1OC(CO)C(O)C(OC(N)=O)C1O)c1cnc[nH]1 (some centres undefined)
- survivor count (dose: 0.03 mg/kg/injection, schedule: Q03HX040 (ip), vehicle: saline): 10 of 10
- survivor count (dose: 0.06 mg/kg/injection, schedule: Q03HX040 (ip), vehicle: saline): 10 of 10
- survivor count (dose: 0.12 mg/kg/injection, schedule: Q03HX040 (ip), vehicle: saline): 9 of 10
- survivor count (dose: 0.25 mg/kg/injection, schedule: Q03HX040 (ip), vehicle: saline): 9 of 10
- survivor count (dose: 0.5 mg/kg/injection, schedule: Q03HX040 (ip), vehicle: saline): 9 of 10
- survivor count (dose: 1.0 mg/kg/injection, schedule: Q01DX009 (ip), vehicle: clinical formulation): 4 of 4
- survivor count (dose: 1.0 mg/kg/injection, schedule: Q03HX040 (ip), vehicle: saline): 8 of 10
- survivor count (dose: 2.0 mg/kg/injection, schedule: Q01DX009 (ip), vehicle: clinical formulation): 4 of 4
- survivor count (dose: 2.0 mg/kg/injection, schedule: Q01DX009 (ip), vehicle: water): 4 of 4
- survivor count (dose: 2.0 mg/kg/injection, schedule: Q03HX008 (ip), vehicle: saline): 8 of 8
- survivor count (dose: 2.0 mg/kg/injection, schedule: Q03HX016 (ip), vehicle: saline): 8 of 8
- survivor count (dose: 2.0 mg/kg/injection, schedule: Q03HX024 (ip), vehicle: saline): 8 of 8
- survivor count (dose: 2.0 mg/kg/injection, schedule: Q03HX040 (ip), vehicle: saline): 9 of 10
- survivor count (dose: 4.0 mg/kg/injection, schedule: Q01DX009 (ip), vehicle: clinical formulation): 4 of 4
- survivor count (dose: 4.0 mg/kg/injection, schedule: Q01DX009 (ip), vehicle: water): 4 of 4
- survivor count (dose: 4.0 mg/kg/injection, schedule: Q03HX008 (ip), vehicle: saline): 8 of 8
- survivor count (dose: 4.0 mg/kg/injection, schedule: Q03HX016 (ip), vehicle: saline): 8 of 8
- survivor count (dose: 4.0 mg/kg/injection, schedule: Q03HX024 (ip), vehicle: saline): 7 of 8 and 8 of 8
- survivor count (dose: 4.0 mg/kg/injection, schedule: Q03HX040 (ip), vehicle: saline): 5 of 10
- survivor count (dose: 8.0 mg/kg/injection, schedule: Q01DX005 (ip), vehicle: saline): 6 of 6
- survivor count (dose: 8.0 mg/kg/injection, schedule: Q01DX009 (ip), vehicle: clinical formulation): 4 of 4
- survivor count (dose: 8.0 mg/kg/injection, schedule: Q01DX009 (ip), vehicle: saline): 8 of 8
- survivor count (dose: 8.0 mg/kg/injection, schedule: Q01DX009 (ip), vehicle: water): 4 of 4
- survivor count (dose: 8.0 mg/kg/injection, schedule: Q03HX008 (ip), vehicle: saline): 8 of 8
- survivor count (dose: 8.0 mg/kg/injection, schedule: Q03HX016 (ip), vehicle: saline): 8 of 8
- survivor count (dose: 8.0 mg/kg/injection, schedule: Q03HX024 (ip), vehicle: saline): 8 of 8
- survivor count (dose: 16.0 mg/kg/injection, schedule: Q01DX001 (ip), vehicle: saline): 8 of 8
- survivor count (dose: 16.0 mg/kg/injection, schedule: Q01DX005 (ip), vehicle: saline): 6 of 6
- survivor count (dose: 16.0 mg/kg/injection, schedule: Q01DX009 (ip), vehicle: clinical formulation): 4 of 4
- survivor count (dose: 16.0 mg/kg/injection, schedule: Q01DX009 (ip), vehicle: saline): 8 of 8
- survivor count (dose: 16.0 mg/kg/injection, schedule: Q01DX009 (ip), vehicle: water): 4 of 4
- survivor count (dose: 16.0 mg/kg/injection, schedule: Q03HX008 (ip), vehicle: saline): 6 of 8 and 8 of 8
- survivor count (dose: 16.0 mg/kg/injection, schedule: Q03HX016 (ip), vehicle: saline): 7 of 8 and 8 of 8
- survivor count (dose: 16.0 mg/kg/injection, schedule: Q03HX024 (ip), vehicle: saline): 7 of 8 and 8 of 8
- survivor count (dose: 32.0 mg/kg/injection, schedule: Q01DX001 (ip), vehicle: saline): 8 of 8
- survivor count (dose: 32.0 mg/kg/injection, schedule: Q01DX005 (ip), vehicle: saline): 6 of 6
- survivor count (dose: 32.0 mg/kg/injection, schedule: Q01DX009 (ip), vehicle: saline): 7 of 8 and 8 of 8
- survivor count (dose: 32.0 mg/kg/injection, schedule: Q01DX009 (ip), vehicle: water): 4 of 4
- survivor count (dose: 32.0 mg/kg/injection, schedule: Q04DX003 (ip), vehicle: saline): 8 of 8
- survivor count (dose: 32.0 mg/kg/injection, schedule: Q08DX002 (ip), vehicle: saline): 8 of 8
- survivor count (dose: 64.0 mg/kg/injection, schedule: Q01DX001 (ip), vehicle: saline): 8 of 8
- survivor count (dose: 64.0 mg/kg/injection, schedule: Q01DX005 (ip), vehicle: saline): 6 of 6
- survivor count (dose: 64.0 mg/kg/injection, schedule: Q01DX009 (ip), vehicle: saline): 8 of 8
- survivor count (dose: 64.0 mg/kg/injection, schedule: Q04DX003 (ip), vehicle: saline): 8 of 8
- survivor count (dose: 64.0 mg/kg/injection, schedule: Q08DX002 (ip), vehicle: saline): 8 of 8
- survivor count (dose: 128.0 mg/kg/injection, schedule: Q01DX001 (ip), vehicle: saline): 7 of 8 and 8 of 8
- survivor count (dose: 128.0 mg/kg/injection, schedule: Q04DX003 (ip), vehicle: saline): 8 of 8
- survivor count (dose: 128.0 mg/kg/injection, schedule: Q08DX002 (ip), vehicle: saline): 8 of 8
